The target of assay [1] is E2 subunit of pyruvate dehydrogenase complex (PDC-E2), endogenous (human (endogenous in HeLa S3)) (UniProt P10515). Put plainly: co-IP; chromatin fraction of HeLa S3 cells incubated with anti-AhR (N-19) or anti-PDC-E2 (ab110332) antibody, protein G-Agarose, 4°C; normal goat or mouse IgG as control; western blotting.
Assay [2] deals with Pyruvate kinase M2 (PKM2), endogenous (human (endogenous in HeLa S3)) (UniProt P14618). Put plainly: co-IP; anti-PKM2 antibody on Dynabeads Protein G, whole-cell lysates of HeLa S3 cells (150 mM NaCl, 0.5% NP-40) not treated or treated with 100 nM indirubin for 1 h; normal rabbit IgG as control; western blotting.
For assay [3], the target named is FLAG-HA-tagged pyruvate kinase M2 (ePKM2) (human) (UniProt P14618). Put plainly: co-IP; FLAG-HA-tagged bait purified on anti-FLAG antibody-conjugated agarose from the solubilized chromatin fraction of stably transduced HeLa S3 cells treated with 100 nM indirubin for 3 h; western blotting; mock purification from non-transduced cells. On the technique in general: In western blotting, separated proteins are transferred to a membrane and probed.

Protein sequences, listed by entry. Tags and fused reporters are not part of them. Residues count along the entry.
UniProt P10515, residues 87-647: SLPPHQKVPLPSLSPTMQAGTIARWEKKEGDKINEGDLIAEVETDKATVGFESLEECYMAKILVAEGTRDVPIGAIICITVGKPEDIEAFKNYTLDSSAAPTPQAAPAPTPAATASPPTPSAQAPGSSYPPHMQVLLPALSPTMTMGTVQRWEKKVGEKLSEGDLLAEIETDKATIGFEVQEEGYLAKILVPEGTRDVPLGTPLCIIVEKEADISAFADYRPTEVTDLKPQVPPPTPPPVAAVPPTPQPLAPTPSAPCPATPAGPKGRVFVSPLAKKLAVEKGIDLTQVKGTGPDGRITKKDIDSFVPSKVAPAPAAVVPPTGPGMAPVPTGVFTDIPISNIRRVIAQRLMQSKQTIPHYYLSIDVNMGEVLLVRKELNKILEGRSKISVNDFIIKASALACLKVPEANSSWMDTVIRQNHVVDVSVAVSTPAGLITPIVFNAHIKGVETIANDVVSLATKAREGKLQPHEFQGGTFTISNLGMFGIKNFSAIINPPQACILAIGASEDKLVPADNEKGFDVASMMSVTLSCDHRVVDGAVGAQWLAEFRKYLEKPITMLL
UniProt P14618: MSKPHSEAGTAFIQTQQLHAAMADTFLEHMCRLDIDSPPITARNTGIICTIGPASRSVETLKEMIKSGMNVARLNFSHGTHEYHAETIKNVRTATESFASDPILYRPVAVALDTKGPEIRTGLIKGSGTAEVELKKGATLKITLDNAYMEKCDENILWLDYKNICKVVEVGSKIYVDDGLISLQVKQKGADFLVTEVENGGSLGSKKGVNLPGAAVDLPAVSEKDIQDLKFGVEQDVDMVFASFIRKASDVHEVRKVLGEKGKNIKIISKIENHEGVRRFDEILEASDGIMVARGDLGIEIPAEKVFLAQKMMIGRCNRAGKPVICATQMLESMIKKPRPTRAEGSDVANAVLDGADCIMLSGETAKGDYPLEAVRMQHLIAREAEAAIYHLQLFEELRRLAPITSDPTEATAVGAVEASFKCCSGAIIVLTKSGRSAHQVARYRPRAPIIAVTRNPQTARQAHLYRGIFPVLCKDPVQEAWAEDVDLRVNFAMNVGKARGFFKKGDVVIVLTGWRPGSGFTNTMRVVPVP
UniProt P35869, residues 11-848: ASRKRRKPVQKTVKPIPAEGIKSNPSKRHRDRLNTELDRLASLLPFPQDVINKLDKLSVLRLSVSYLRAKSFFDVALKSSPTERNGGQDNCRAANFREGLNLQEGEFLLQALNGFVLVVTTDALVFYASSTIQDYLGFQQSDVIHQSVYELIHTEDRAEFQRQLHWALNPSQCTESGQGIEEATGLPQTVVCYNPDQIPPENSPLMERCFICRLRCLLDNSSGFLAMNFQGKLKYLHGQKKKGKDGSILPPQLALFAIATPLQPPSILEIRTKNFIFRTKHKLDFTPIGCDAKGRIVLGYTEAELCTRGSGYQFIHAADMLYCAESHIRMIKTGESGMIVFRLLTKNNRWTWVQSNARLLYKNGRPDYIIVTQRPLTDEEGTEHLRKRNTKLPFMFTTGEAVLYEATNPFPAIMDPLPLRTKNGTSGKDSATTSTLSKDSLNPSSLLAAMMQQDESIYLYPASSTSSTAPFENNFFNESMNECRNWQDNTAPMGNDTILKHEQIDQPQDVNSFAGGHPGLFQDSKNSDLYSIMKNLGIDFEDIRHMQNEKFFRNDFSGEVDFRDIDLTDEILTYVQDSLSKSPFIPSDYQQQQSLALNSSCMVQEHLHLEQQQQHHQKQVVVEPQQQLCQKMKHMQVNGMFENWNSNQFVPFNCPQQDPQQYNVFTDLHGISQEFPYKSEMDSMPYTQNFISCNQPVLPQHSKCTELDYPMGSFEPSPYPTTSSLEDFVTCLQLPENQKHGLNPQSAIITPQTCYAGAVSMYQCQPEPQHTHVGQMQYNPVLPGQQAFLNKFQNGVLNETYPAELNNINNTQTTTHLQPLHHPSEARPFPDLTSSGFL
UniProt Q09472: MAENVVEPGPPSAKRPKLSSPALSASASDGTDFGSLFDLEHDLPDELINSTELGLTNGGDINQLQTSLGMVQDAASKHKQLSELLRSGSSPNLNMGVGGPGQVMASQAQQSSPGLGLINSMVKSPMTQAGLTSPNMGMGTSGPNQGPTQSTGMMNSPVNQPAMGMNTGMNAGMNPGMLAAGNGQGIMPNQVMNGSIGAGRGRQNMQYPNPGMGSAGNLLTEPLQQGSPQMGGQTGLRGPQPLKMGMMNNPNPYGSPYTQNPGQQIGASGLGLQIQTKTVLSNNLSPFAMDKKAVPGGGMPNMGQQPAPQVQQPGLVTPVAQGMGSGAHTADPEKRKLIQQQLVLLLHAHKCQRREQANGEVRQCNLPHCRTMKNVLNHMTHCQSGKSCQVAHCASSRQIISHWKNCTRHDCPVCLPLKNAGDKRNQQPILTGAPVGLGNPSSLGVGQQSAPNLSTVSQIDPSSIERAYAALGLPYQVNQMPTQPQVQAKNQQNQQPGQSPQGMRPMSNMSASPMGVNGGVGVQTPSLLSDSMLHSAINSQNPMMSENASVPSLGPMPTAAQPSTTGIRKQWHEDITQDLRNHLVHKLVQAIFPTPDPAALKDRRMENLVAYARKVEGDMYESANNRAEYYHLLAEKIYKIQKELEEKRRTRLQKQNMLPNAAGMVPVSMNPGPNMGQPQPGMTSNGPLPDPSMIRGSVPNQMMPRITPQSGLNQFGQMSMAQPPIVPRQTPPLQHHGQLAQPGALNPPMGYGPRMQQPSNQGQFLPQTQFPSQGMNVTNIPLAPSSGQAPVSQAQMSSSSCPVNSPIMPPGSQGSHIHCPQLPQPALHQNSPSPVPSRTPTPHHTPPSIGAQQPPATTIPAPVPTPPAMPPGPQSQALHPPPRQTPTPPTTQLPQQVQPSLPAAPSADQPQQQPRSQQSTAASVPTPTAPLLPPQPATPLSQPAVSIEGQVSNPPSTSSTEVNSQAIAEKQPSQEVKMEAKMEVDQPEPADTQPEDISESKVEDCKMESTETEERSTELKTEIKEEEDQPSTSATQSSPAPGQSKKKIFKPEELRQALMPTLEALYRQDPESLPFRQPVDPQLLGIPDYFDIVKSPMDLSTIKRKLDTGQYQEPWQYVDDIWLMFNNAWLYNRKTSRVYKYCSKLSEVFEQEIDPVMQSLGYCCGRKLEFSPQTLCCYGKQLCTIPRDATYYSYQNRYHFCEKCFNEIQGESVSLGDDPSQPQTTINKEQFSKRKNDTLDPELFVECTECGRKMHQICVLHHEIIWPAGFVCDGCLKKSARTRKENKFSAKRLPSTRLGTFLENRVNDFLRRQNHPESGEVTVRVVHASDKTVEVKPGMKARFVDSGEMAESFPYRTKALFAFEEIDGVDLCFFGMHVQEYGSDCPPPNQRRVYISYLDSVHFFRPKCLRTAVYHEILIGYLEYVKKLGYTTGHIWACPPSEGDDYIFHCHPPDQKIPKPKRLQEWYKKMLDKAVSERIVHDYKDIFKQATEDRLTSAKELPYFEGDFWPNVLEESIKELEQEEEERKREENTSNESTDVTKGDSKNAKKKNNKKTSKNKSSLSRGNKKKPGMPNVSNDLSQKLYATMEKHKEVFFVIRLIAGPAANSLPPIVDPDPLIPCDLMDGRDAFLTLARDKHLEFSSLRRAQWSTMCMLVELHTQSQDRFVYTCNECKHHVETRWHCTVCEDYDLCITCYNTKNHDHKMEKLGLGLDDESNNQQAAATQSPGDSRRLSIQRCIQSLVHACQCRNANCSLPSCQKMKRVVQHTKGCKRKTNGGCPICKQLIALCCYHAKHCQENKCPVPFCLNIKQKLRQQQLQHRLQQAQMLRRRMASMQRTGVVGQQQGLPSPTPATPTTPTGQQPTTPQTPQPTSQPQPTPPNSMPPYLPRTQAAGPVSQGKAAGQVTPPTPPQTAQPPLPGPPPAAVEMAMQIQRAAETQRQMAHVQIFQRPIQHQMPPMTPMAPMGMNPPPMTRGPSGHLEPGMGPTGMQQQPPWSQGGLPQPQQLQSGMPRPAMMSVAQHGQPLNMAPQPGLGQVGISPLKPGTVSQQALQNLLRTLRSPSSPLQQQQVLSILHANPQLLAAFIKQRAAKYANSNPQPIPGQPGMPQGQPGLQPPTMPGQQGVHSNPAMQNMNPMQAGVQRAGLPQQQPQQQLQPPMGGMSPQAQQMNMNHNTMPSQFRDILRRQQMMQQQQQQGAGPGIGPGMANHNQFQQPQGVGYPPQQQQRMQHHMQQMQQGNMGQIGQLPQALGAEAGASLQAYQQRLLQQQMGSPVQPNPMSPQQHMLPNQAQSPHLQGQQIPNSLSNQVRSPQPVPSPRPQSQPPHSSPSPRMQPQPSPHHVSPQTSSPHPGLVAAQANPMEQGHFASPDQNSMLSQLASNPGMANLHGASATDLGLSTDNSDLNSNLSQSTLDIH

In assay [4] the target is Arylhydrocarbon receptor (AhR), endogenous (human (endogenous in HeLa S3)) (UniProt P35869). Put plainly: co-IP; chromatin fraction of HeLa S3 cells incubated with anti-AhR (N-19) or anti-PDC-E2 (ab110332) antibody, protein G-Agarose, 4°C; normal goat or mouse IgG as control; western blotting.
Assay [5] concerns the target FLAG-HA-tagged arylhydrocarbon receptor (eAhR) (human) (UniProt P35869). Put plainly: co-IP; eAhR purified on anti-FLAG antibody-conjugated agarose from whole-cell lysates of eAhR-expressing HeLa S3 cells not treated or treated with 100 nM indirubin for 3 h; western blotting.
Assay [6] has the same target. Put plainly: co-IP; FLAG-HA-tagged bait purified on anti-FLAG antibody-conjugated agarose from the solubilized chromatin fraction of stably transduced HeLa S3 cells treated with 100 nM indirubin for 3 h; western blotting; mock purification from non-transduced cells.

These are yes or no findings as the source states them, for the method shown. Binding seen in cells or lysates may run through a third protein. Some entries that bind do so weakly or less than the wild type.

For the substance “Arylhydrocarbon receptor (AhR), endogenous (from UniProt P35869 11-848)”, the binding entry in assay [1], in assay [2] and in assay [3] was “binds” each time.
As to “Pyruvate kinase M2 (PKM2), endogenous (from UniProt P14618 1-531)”, the binding entry in assay [4], in assay [5] and in assay [6] was “binds” each time.
“Histone acetyltransferase p300, endogenous (from UniProt Q09472 1-2414)”: the binding entry in assay [6] and in assay [3] was “binds” each time.

These data come from publication PMC4737187.
